According to article doi:10.1101/2020.11.06.371260:
Residue numbers refer to the chain shown, from its start. Results are given in words; binding and its absence hold for the method and conditions named. For some of these results: A result given as binding can be weak or reduced; the word gives no strength. For some of these results: Sequences can lack the tags named with a protein. For some of these results: Binding seen in cells or lysates may run through a third protein.

Legend:
[1] = biological target: T1, AtEXO70B1, yeast two-hybrid fusion (Arabidopsis thaliana) (UniProt Q9FGH9); assay: two-hybrid
T1 sequence: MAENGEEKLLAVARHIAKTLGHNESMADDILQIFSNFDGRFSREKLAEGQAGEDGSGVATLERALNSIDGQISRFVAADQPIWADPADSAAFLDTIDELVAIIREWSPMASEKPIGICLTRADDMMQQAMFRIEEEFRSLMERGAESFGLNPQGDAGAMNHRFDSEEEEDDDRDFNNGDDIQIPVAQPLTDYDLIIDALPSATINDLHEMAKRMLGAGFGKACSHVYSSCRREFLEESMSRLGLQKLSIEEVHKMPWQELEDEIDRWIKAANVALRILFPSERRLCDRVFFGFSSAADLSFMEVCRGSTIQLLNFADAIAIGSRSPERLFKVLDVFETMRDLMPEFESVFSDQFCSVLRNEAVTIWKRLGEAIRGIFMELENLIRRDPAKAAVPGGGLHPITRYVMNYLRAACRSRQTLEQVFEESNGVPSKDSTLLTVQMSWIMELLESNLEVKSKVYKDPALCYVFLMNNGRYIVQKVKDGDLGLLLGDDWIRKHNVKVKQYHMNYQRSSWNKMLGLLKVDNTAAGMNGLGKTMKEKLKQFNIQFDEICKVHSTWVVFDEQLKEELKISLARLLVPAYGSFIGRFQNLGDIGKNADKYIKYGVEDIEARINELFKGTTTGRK

[2] = biological target: T2, AtEXO70B1 fused C-terminally with nVENUS (Arabidopsis thaliana) (UniProt Q9FGH9); assay: split reporter
T2 sequence: T1 sequence

[3] = biological target: T3, Arabidopsis EXO84B, yeast two-hybrid fusion (Arabidopsis thaliana) (UniProt Q9LTB0); assay: two-hybrid
T3 sequence: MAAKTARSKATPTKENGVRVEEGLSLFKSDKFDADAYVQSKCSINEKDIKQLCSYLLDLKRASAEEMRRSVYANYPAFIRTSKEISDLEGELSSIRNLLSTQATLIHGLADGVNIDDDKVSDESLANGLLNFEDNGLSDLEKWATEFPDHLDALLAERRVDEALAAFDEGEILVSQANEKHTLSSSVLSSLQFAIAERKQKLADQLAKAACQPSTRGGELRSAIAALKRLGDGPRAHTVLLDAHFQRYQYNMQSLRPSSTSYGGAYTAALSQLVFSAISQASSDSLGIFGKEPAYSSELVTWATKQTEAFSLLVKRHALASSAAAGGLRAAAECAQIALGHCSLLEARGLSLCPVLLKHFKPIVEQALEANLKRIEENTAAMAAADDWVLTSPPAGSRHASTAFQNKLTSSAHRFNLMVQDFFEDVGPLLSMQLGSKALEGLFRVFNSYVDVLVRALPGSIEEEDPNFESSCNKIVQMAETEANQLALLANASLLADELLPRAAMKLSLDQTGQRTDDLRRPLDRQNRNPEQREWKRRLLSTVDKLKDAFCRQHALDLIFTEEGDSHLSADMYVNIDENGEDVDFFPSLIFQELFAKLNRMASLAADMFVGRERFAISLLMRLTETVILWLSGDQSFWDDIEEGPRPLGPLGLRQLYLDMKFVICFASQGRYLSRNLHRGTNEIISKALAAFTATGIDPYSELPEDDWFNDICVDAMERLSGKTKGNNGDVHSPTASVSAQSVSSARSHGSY

[4] = biological target: T4, AtEXO70B1-AB truncation (1 to 388 amino acids), yeast two-hybrid fusion (Arabidopsis thaliana) (UniProt Q9FGH9); assay: two-hybrid
T4 sequence: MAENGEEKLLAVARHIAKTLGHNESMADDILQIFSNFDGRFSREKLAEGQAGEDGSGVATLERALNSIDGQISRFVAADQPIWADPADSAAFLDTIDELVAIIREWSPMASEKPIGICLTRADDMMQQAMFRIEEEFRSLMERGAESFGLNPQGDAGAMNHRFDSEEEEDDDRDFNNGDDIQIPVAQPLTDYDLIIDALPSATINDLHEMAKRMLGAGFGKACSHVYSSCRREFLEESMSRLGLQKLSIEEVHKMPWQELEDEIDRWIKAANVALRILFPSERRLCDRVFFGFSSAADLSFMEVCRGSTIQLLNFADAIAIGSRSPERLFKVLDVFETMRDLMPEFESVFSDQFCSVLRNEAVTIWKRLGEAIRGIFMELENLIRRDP

[5] = biological target: T5, Arabidopsis EXO84B, BiFC fusion (Arabidopsis thaliana) (UniProt Q9LTB0); assay: split reporter
T5 sequence: T3 sequence

[6] = biological target: T6, Arabidopsis SEC15B, yeast two-hybrid fusion (Arabidopsis thaliana) (UniProt F4JHH5); assay: two-hybrid
T6 sequence: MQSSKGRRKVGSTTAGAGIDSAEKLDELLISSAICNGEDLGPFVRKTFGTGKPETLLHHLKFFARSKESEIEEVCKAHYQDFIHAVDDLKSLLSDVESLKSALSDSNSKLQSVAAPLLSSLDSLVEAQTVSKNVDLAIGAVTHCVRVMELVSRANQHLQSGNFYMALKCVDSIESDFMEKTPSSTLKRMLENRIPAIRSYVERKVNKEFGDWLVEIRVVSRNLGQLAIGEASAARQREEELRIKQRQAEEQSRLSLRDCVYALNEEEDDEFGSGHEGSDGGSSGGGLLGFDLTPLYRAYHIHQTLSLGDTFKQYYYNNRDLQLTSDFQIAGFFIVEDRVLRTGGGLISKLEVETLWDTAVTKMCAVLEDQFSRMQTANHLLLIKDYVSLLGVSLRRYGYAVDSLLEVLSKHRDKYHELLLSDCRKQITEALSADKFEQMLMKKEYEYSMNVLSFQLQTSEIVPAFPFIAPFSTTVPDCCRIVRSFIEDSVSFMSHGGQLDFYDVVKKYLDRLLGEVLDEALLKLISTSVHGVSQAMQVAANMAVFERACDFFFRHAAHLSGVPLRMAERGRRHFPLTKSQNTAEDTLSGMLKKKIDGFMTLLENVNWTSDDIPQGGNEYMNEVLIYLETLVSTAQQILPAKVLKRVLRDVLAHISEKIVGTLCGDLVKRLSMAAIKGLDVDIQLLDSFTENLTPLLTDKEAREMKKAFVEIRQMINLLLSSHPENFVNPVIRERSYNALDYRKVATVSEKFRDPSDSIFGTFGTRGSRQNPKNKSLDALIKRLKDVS

[7] = biological target: T7, AtEXO70A1 splice form 1, yeast two-hybrid fusion (Arabidopsis thaliana) (UniProt Q9LZD3); assay: two-hybrid
T7 sequence: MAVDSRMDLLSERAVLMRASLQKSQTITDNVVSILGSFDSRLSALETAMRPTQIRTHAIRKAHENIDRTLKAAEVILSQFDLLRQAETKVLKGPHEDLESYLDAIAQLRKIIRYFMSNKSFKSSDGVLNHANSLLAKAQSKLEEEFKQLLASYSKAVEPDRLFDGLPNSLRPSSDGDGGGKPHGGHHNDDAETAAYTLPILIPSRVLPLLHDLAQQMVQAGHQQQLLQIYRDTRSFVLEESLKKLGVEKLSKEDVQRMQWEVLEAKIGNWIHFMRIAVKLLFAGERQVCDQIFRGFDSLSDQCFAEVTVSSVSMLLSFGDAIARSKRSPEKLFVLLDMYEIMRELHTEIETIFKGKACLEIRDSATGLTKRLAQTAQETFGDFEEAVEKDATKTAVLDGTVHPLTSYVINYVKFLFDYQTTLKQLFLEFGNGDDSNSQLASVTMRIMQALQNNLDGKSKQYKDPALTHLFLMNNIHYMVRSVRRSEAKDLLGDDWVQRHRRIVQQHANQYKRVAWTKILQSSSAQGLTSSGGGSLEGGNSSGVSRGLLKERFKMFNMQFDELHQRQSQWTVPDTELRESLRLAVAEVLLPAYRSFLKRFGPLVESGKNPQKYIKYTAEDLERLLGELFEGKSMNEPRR

[8] = biological target: T8, AtEXO70B1 E347K, yeast two-hybrid fusion (Arabidopsis thaliana) (UniProt Q9FGH9); assay: two-hybrid
T8 sequence: T1 sequence with E347K

[9] = biological target: T9, AtEXO70B1-BC truncation (319 to 511 amino acids), yeast two-hybrid fusion (Arabidopsis thaliana) (UniProt Q9FGH9); assay: two-hybrid
T9 sequence: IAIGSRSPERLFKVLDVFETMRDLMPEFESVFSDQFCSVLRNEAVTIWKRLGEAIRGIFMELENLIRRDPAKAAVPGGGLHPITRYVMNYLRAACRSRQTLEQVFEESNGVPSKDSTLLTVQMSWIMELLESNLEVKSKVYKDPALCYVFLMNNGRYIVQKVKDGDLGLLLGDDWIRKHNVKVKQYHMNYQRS

[10] = biological target: T10, AtEXO70B1-CD truncation (389 to 625 amino acids), yeast two-hybrid fusion (Arabidopsis thaliana) (UniProt Q9FGH9); assay: two-hybrid
T10 sequence: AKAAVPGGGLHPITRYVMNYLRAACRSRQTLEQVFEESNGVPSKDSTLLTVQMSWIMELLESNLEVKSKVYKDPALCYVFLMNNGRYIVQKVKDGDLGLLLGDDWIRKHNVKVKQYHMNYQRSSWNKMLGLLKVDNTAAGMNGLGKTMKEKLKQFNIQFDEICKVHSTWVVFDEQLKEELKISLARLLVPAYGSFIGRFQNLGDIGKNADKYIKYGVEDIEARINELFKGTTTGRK

[11] = biological target: T11, AtEXO70B2, yeast two-hybrid fusion (Arabidopsis thaliana) (UniProt Q9LMJ4); assay: two-hybrid
T11 sequence: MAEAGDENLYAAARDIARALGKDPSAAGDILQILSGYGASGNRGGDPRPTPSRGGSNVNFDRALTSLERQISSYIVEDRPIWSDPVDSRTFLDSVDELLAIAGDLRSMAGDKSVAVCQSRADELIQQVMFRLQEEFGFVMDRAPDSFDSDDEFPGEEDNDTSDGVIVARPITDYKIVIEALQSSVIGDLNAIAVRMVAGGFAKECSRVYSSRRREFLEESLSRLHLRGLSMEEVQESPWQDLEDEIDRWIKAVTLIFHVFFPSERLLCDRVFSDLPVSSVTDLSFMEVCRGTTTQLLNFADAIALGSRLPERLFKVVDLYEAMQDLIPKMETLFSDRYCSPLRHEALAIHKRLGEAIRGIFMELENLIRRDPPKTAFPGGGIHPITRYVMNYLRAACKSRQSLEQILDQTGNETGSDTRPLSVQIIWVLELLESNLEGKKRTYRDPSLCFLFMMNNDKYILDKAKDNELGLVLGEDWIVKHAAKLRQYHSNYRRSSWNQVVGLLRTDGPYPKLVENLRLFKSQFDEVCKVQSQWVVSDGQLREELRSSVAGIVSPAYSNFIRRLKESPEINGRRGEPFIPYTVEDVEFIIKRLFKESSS

[12] = biological target: T12, EXO70B1 full length, recombinant (Arabidopsis thaliana) (UniProt Q9FGH9); assay: SEC
T12 sequence: T1 sequence

Substance	binding [1]	binding [2]	binding [3]	binding [4]	also measured
Acidovorax citrulli XopP homolog, yeast two-hybrid fusion	no binding	–	–	–	–
AvrRps4 effector from Pseudomonas syringae pv. pisi fused C-terminally with cCFP	–	no binding	–	–	–
XccXopP N-terminal fragment (1 to 420 amino acids), yeast two-hybrid fusion (domain or fragment)	–	–	binds	binds	–
XccXopP fused C-terminally with cCFP	–	binds	–	–	binding [5]: binds
XopP from Xanthomonas campestris pv. campestris, yeast two-hybrid fusion	binds	–	binds	binds	binding [6]: no binding; binding [7]: no binding; binding [8]: binds; binding [9]: no binding; binding [10]: no binding; binding [11]: binds
XopP-100 (XopP lacking the first 100 N-terminal residues), recombinant (domain or fragment)	–	–	–	–	binding [12]: binds
